Measured values from paper PMC12824264.

What was measured:
[1] = biological target: T1, BMP9 growth factor domain (GFD) dimer (human) (UniProt Q9UK05); assay: native gel or EMSA; pro:BMP9 or pro:BMP10 pre-mixed with sENG(D), sENG(M), BMPRII ECD or ActRIIB ECD at stated molar ratios (from 0.3:1) in TBS, 8 ul, 30 min at room temperature; 10% native PAGE at 4 C; bands cut out and re-run on non-reducing SDS-PAGE; both purified
T1 sequence: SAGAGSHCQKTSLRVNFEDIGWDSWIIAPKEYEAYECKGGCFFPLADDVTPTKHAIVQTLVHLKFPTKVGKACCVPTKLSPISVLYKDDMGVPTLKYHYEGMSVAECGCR

[2] = biological target: T1, BMP9 growth factor domain (GFD) dimer (human); assay: SEC; analytical gel filtration; pro:BMP9 or pro:BMP10 pre-mixed with 0.3-fold sENG(M) or sENG(D); both purified
[3] = biological target: T2, BMP10 growth factor domain (GFD) dimer (human) (UniProt O95393); assay: native gel or EMSA; pro:BMP9 or pro:BMP10 pre-mixed with sENG(D), sENG(M), BMPRII ECD or ActRIIB ECD at stated molar ratios (from 0.3:1) in TBS, 8 ul, 30 min at room temperature; 10% native PAGE at 4 C; bands cut out and re-run on non-reducing SDS-PAGE; both purified
T2 sequence: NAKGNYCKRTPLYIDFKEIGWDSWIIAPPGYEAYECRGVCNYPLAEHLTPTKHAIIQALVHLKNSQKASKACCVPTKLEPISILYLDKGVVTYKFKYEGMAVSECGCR

[4] = biological target: T2, BMP10 growth factor domain (GFD) dimer (human); assay: SEC; analytical gel filtration; pro:BMP9 or pro:BMP10 pre-mixed with 0.3-fold sENG(M) or sENG(D); both purified

Substance	binding [1]	binding [2]	binding [3]	binding [4]
BMP9 prodomain (human) (domain or fragment)	binds	binds	–	–
BMP10 prodomain (human) (domain or fragment)	–	–	binds	binds

Results are given in words; binding and its absence hold for the method and conditions named. Binding can be weak; no strength is given.
